Reference: PubChem BioAssay AID743121 (NCATS, 2013)
The deposit covers about 26,000 reagents; below is an unselected part. 167 of them (0.63%) count as active. 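Calls are per gene from RSA p-values that are not deposited; an individual active-marked siRNA can sensitise only weakly.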 Reagents against one gene are numbered here. Not all columns of the deposit are shown.

- Screen: 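Genes whose silencing strengthens cell killing by camptothecin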 (primary screen)
- System: MDA-MB-231 cells, a human breast cancer line
- Reagents: single siRNA against human genes, 20 nM siRNA (0.8 pmol per well)
- Duration: 120 h (drug added 48 h after transfection, read 72 h later)
- Challenge: camptothecin 20 nM (about EC30) for 72 h; vehicle 0.1% DMSO in parallel plates
- Detection: 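CellTiter-Glo ATP signal, scaled to control siRNA as percent viability; sensitisation given as log2 of untreated divided by camptothecin-treated viability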
- Direction: log2 vehicle/camptothecin viability: higher = stronger sensitisation to camptothecin
- Active means: 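Active genes have an RSA gene-level p-value below 0.001, computed from the ratios of their separate siRNAs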

| target | reagent no. | log2 vehicle/camptothecin viability | Call |
| --- | --- | --- | --- |
| FLT4 (GeneID 2324) | 1 | -0.423 | inactive |
| FLT4 (GeneID 2324) | 2 | -0.228 | inactive |
| FLT4 (GeneID 2324) | 3 | -0.0665 | inactive |
| FLT4 (GeneID 2324) | 4 | -0.561 | inactive |
| GPR19 (GeneID 2842) | 1 | -0.0152 | inactive |
| GPR19 (GeneID 2842) | 2 | 0.313 | inactive |
| GPR19 (GeneID 2842) | 3 | -0.425 | inactive |
| GPR19 (GeneID 2842) | 4 | -0.137 | inactive |
| METTL1 (GeneID 4234) | 1 | 0.213 | inactive |
| METTL1 (GeneID 4234) | 2 | 0.398 | inactive |
| METTL1 (GeneID 4234) | 3 | -0.402 | inactive |
| METTL1 (GeneID 4234) | 4 | 0.0509 | inactive |
| ALS2CL (GeneID 259173) | 1 | 0.384 | inactive |
| ALS2CL (GeneID 259173) | 2 | -0.549 | inactive |
| ALS2CL (GeneID 259173) | 3 | -0.126 | inactive |
| ALS2CL (GeneID 259173) | 4 | 0.222 | inactive |
| LNX2 (GeneID 222484) | 1 | -0.216 | inactive |
| LNX2 (GeneID 222484) | 2 | -0.256 | inactive |
| LNX2 (GeneID 222484) | 3 | -0.00429 | inactive |
| LNX2 (GeneID 222484) | 4 | -0.215 | inactive |
| SCN11A (GeneID 11280) | 1 | -0.102 | inactive |
| SCN11A (GeneID 11280) | 2 | -0.381 | inactive |
| SCN11A (GeneID 11280) | 3 | 0.259 | inactive |
| SCN11A (GeneID 11280) | 4 | -0.517 | inactive |
| GH1 (GeneID 2688) | 1 | -0.0364 | inactive |
| A1BG (GeneID 1) | 1 | -0.393 | inactive |
| A1BG (GeneID 1) | 2 | -0.131 | inactive |
| A1BG (GeneID 1) | 3 | 0.00096 | inactive |
| ACTL6A (GeneID 86) | 1 | -0.235 | inactive |
| ACTL6A (GeneID 86) | 2 | -0.426 | inactive |
| ACTL6A (GeneID 86) | 3 | 0.132 | inactive |
| ACTL6A (GeneID 86) | 4 | 0.0416 | inactive |
| FCMR (GeneID 9214) | 1 | -0.332 | inactive |
| FCMR (GeneID 9214) | 2 | -0.115 | inactive |
| FCMR (GeneID 9214) | 3 | -0.281 | inactive |
| FCMR (GeneID 9214) | 4 | -0.818 | inactive |
| NMU (GeneID 10874) | 1 | -0.141 | inactive |
| NMU (GeneID 10874) | 2 | 0.233 | inactive |
| NMU (GeneID 10874) | 3 | -0.112 | inactive |
| NMU (GeneID 10874) | 4 | -0.37 | inactive |
| PDGFA (GeneID 5154) | 1 | -0.0528 | inactive |
| PDGFA (GeneID 5154) | 2 | -0.213 | inactive |
| PDGFA (GeneID 5154) | 3 | 0.527 | inactive |
| PDGFA (GeneID 5154) | 4 | -0.163 | inactive |
| DOCK2 (GeneID 1794) | 1 | -0.388 | inactive |
| DOCK2 (GeneID 1794) | 2 | -0.406 | inactive |
| DOCK2 (GeneID 1794) | 3 | 0.0172 | inactive |
| DOCK2 (GeneID 1794) | 4 | -0.0658 | inactive |
| BCL2L14 (GeneID 79370) | 1 | -0.548 | inactive |
| BCL2L14 (GeneID 79370) | 2 | -0.0789 | inactive |
| BCL2L14 (GeneID 79370) | 3 | -0.111 | inactive |
| BCL2L14 (GeneID 79370) | 4 | -0.248 | inactive |
| PHF20L1 (GeneID 51105) | 1 | -0.215 | inactive |
| PHF20L1 (GeneID 51105) | 2 | 0.515 | inactive |
| PHF20L1 (GeneID 51105) | 3 | -0.0924 | inactive |
| PHF20L1 (GeneID 51105) | 4 | -0.892 | inactive |
| ADAM29 (GeneID 11086) | 1 | -0.00546 | inactive |
| ADAM29 (GeneID 11086) | 2 | -0.206 | inactive |
| ADAM29 (GeneID 11086) | 3 | 0.131 | inactive |
| ADAM29 (GeneID 11086) | 4 | -0.333 | inactive |
| CAPN3 (GeneID 825) | 1 | -0.175 | inactive |
| CAPN3 (GeneID 825) | 2 | -0.364 | inactive |
| CAPN3 (GeneID 825) | 3 | -0.306 | inactive |
| OPRL1 (GeneID 4987) | 1 | -0.111 | inactive |
| OPRL1 (GeneID 4987) | 2 | -0.597 | inactive |
| OPRL1 (GeneID 4987) | 3 | -0.289 | inactive |
| OPRL1 (GeneID 4987) | 4 | -0.397 | inactive |
| SLIT3 (GeneID 6586) | 1 | -0.469 | inactive |
| SLIT3 (GeneID 6586) | 2 | -0.319 | inactive |
| SLIT3 (GeneID 6586) | 3 | -0.148 | inactive |
| SLIT3 (GeneID 6586) | 4 | -0.047 | inactive |
